From patent publication US20170369589A1 (INBIOMOTION S L, published 2017)
These are yes or no findings as the source states them, for the method shown. Some entries that bind do so weakly or less than the wild type. No end group written: not given here.

Sequences of proteins named here, by UniProt entry; tags and fusion partners are left off.
UniProt O75444: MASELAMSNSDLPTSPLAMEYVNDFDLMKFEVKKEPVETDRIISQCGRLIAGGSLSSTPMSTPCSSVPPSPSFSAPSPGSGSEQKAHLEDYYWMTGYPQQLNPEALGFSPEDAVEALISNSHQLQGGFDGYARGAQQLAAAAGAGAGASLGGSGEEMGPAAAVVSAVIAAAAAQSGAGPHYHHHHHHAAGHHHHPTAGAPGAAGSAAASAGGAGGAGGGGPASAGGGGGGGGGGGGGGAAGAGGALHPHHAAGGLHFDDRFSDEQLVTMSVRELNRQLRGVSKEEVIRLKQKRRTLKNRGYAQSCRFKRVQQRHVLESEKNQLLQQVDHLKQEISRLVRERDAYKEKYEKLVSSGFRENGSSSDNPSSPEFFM

Key:
[1] = target: recombinantly expressed short human c-MAF isoform (human) (UniProt O75444); test: western blot of whole cell lysates, antibody at 1:50, tubulin as loading control
[2] = target: endogenous c-MAF isoforms (including post translational modified proteins) and its degradation forms (human) (UniProt O75444); test: immunohistochemistry on primary breast cancer tissue sections
[3] = target: recombinantly expressed short human c-MAF isoform (human) (UniProt O75444); test: western blot of whole cell lysates, antibody at 1:50 dilution
[4] = target: endogenous c-MAF isoforms (including post translational modified proteins) and its degradation forms (human) (UniProt O75444); test: as above

Measured: binding

B1: INB-1-11-8 c-MAF specific monoclonal antibody (rabbit) (antibody, V domains shown)
VH: QSLEESGGRLVTPGTPLTLTCTASGFSLNNYPMTWVRQAPGKGLDYIGVINNSGETAYATWAKRRFTISRTSTTLYLKIASPTIEDTATYFCARGGPVSSDMWGPGTLVIVSS
VL: AQVLTQTASPVSAVVGGTVTINCQSSQSVYRGDWLAWYQQRPGQPPKLLIYGASTLASGVPSRFKGSGSGTHFTLTISDLDCDDAATYYCAGGFSGHIYDFGGGTEVVVKG
notes: Rabbit monoclonal antibody; also called Clone ID11-8; antibody INB-1-11-8
binds: [1] | [2] | [3] | [4]
